PubChem BioAssay AID1053208, Peter MacCallum Cancer Centre – 2014

Test: 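Genes whose silencing cuts survival of bone tumour cells only with doxorubicin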 (primary screen)
Cell system: mouse osteosarcoma cells, early-passage culture from an engineered mouse model of fibroblastic bone tumour
Reagents: siRNA pool against mouse genes, 40 nM
Timing: about 120 h (48 h before drug, then 72 h with drug)
Challenge: doxorubicin 100 nM for 72 h, roughly 30-40% inhibitory dose
Detection: 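Viability read as ATP luminescence after 72 h of 100 nM doxorubicin or none, duplicate wells averaged, scaled to non-targeting siRNA, then expressed as robust z-scores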
Scale: viability z-score with doxorubicin: higher = more viable cells under doxorubicin; viability z-score without drug: higher = more viable cells with knock-down alone
Rule for the call: 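Called active if knock-down leaves viability unchanged without drug (z within -2 to 2) but lowers it with doxorubicin (z at or under -2)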
Here is one part, drawn at random, of about 17,000 reagents tested. Of all reagents, 788 (4.7%) are marked active. 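Calls rest on z-score classes alone; an extra cut-off of viability at most 70% of control was not applied to them.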 A number with no mark means an inactive call. Not all columns of the deposit are shown. No sequences are given here.

Hp1bp3 (heterochromatin protein 1, binding protein 3) — combined z-score class: no change with or without drug; viability z-score with doxorubicin: 0.67; viability z-score without drug: 0.67
Atf6 (activating transcription factor 6) — combined z-score class: no change with or without drug; viability z-score with doxorubicin: -1.57; viability z-score without drug: -1.18
Map3k14 (mitogen-activated protein kinase kinase kinase 14) — combined z-score class: no change with or without drug; viability z-score with doxorubicin: -0.67; viability z-score without drug: -1.85
Kirrel2 (kirre like nephrin family adhesion molecule 2) — combined z-score class: no change with or without drug; viability z-score with doxorubicin: -0.45; viability z-score without drug: 0.17
Esx1 (extraembryonic, spermatogenesis, homeobox 1) — combined z-score class: no change with or without drug; viability z-score with doxorubicin: -0.22; viability z-score without drug: 0.17
Hsd3b1 — combined z-score class: no change with or without drug; viability z-score with doxorubicin: -0.45; viability z-score without drug: 0.51
Ccdc121 (coiled-coil domain containing 121) — combined z-score class: no change with or without drug; viability z-score with doxorubicin: 0.79; viability z-score without drug: 1.18
Blk (Blk proto-oncogene, Src family tyrosine kinase) — combined z-score class: no change with or without drug; viability z-score with doxorubicin: 0.45; viability z-score without drug: 0.17
Or14j3 (olfactory receptor family 14 subfamily J member 3) — combined z-score class: no change with or without drug; viability z-score with doxorubicin: -1.35; viability z-score without drug: 1.18
Adam6a (a disintegrin and metallopeptidase domain 6A) — combined z-score class: no change with or without drug; viability z-score with doxorubicin: 0.56; viability z-score without drug: 0.34
Itga10 (integrin, alpha 10) — combined z-score class: no change with or without drug; viability z-score with doxorubicin: 0; viability z-score without drug: -0.84
Lrrc57 (leucine rich repeat containing 57) — combined z-score class: no change with or without drug; viability z-score with doxorubicin: 0; viability z-score without drug: -1.35
Pex3 (peroxisomal biogenesis factor 3) — combined z-score class: no change with or without drug; viability z-score with doxorubicin: 0.34; viability z-score without drug: 0.17
Bcr (BCR activator of RhoGEF and GTPase) — combined z-score class: no change with or without drug; viability z-score with doxorubicin: 0.11; viability z-score without drug: -0.34
Fam180a (family with sequence similarity 180, member A) — combined z-score class: no change with or without drug; viability z-score with doxorubicin: -0.67; viability z-score without drug: 0.67
Mark2 (MAP/microtubule affinity regulating kinase 2) — combined z-score class: no change with or without drug; viability z-score with doxorubicin: 1.57; viability z-score without drug: -0.17
S100a8 (S100 calcium binding protein A8 (calgranulin A)) — combined z-score class: no change with or without drug; viability z-score with doxorubicin: -0.67; viability z-score without drug: -0.17
Serpinb6c (serine (or cysteine) peptidase inhibitor, clade B, member 6c) — combined z-score class: no change with or without drug; viability z-score with doxorubicin: 1.35; viability z-score without drug: 0.17
Fem1al (fem-1 homolog A like) — combined z-score class: no change with or without drug; viability z-score with doxorubicin: 0.67; viability z-score without drug: 1.52

2 entries from above, sorted by “viability z-score without drug”, lowest first.
Map3k14 (mitogen-activated protein kinase kinase kinase 14) — combined z-score class: no change with or without drug; viability z-score with doxorubicin: -0.67; viability z-score without drug: -1.85
Kirrel2 (kirre like nephrin family adhesion molecule 2) — combined z-score class: no change with or without drug; viability z-score with doxorubicin: -0.45; viability z-score without drug: 0.17
